According to PubChem BioAssay AID662 (National Center for Advancing Translational Sciences (NCATS), 2007):
The list shows a part of the results. These are further read-outs of the screen, such as a control signal, another cell line or another target. No call is given for them. Compounds called inactive in the main read-out are mostly missing here. Words in brackets tell the shape of the fitted curve; partial curves, single points and poor fits give uncertain potencies.

Assay: Cell signaling CRE-BLA (Fsk stim)
Settings: CHO CRE-bla reporter (cAMP response element driving beta-lactamase), forskolin EC10, beta-lactamase ratio; measured here: 460 nm blue channel
Method in brief: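 qHTS titration format; CRE-bla CHO reporter; stimulus EC10 NKH 477, a water-soluble forskolin. Read: CCF4 460/530 nm ratio. Potency expressed as AC50 for activators or inhibitors.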

| SMILES | AC50 |
| --- | --- |
| CCOCCCNC(=O)C1CCN(c2cc(C)nc3c(-c4ccc(OC)c(OC)c4)c(C)nn23)CC1 | 5.01 µM [rising, partial curve] |
| Cc1cc(NCCN2CCOCC2)n2nc(C)c(-c3ccc(Cl)cc3)c2n1 | 0.251 µM [rising, full curve] |
| CCN1CCN(C(=O)c2cc3c(-c4ccc(Cl)cc4)nn(C)c3s2)CC1 | 10 µM [rising, partial curve] |
| COCCCN1C(=O)C(O)=C(C(=O)c2ccco2)C1c1cccc(Br)c1 (stereo not drawn) | 0.631 µM [falling, single point] |
| COc1ccccc1N1CCN(CC(O)COc2ccc(S(=O)(=O)N3CCOCC3)cc2)CC1 (stereo not drawn) | 5.01 µM [falling, partial curve] |
| Cn1c(=O)c2c(nc(CN3CCC(C(N)=O)CC3)n2CCCc2ccccc2)n(C)c1=O | 25.1 µM [rising, single point] |
| O=C1CC(C(=O)Nc2ccccc2)C2(CCCC2)O1 (stereo not drawn) | 12.6 µM [falling, single point] |
| CCOc1ccccc1NC=C1C(=O)OC(C)(C)OC1=O | 10 µM [rising, single point] |
| CCCCOCCCNS(=O)(=O)Cc1ccccc1 | 0.00794 µM [falling, full curve] |
| CCc1nc(N)c(C#N)c(-c2ccccc2OC)c1C | 20 µM [rising, single point] |
| Cc1cccc(N2C(N)=NC(N)=NC23CCCCC3)c1 | 0.501 µM [falling, full curve] |
| O=C(CC1Sc2ccccc2NC1=O)OCC(=O)N1CCc2ccccc21 (stereo not drawn) | 3.16 µM [falling, partial curve] |
| CNc1nc(C)nc(-n2nc(C)cc2C)n1 | 10 µM [rising, single point] |
| CCOc1cc(C2CC(=O)NC3=C2C(=O)C(C(=O)OC)C(C)C3)cc(Cl)c1O (stereo not drawn) | 12.6 µM [rising, single point] |
| C=CCn1c(N2CCCCCC2)nc2c1c(=O)n(C)c(=O)n2C | 12.6 µM [rising, partial curve] |
| Fc1ccc(Br)cc1C1C=C(c2cccnc2)Nc2ncnn21 (stereo not drawn) | 12.6 µM [rising, single point] |
| COC(=O)CCC(=O)Nc1ccc(OC)cc1 | 0.316 µM [rising, partial curve, poor fit] |
| NC(=O)c1oc2ccc(Cl)cc2c1N | 0.02 µM [falling, full curve, poor fit] |
| COCCNC(=O)C(c1ccco1)N(Cc1ccc(OC)cc1)C(=O)Cn1nnc2ccccc21 (stereo not drawn) | 0.1 µM [falling, full curve, poor fit] |
| COc1ccccc1NC(=O)CN1CCN(c2ccc(Cl)cc2)CC1 | 0.316 µM [rising, full curve, poor fit] |
| O=C(O)C(=Cc1ccc(-c2ccccc2)cc1)C(=O)O | 3.98 µM [falling, partial curve, poor fit] |
| CC(=O)Nc1cc2ccc(OC(C)=O)cc2oc1=O | 3.16 µM [rising, full curve] |
| C=C1C(=O)O[C@H]2C[C@@]3(C)CCCC(=C)[C@@H]3C[C@H]12 | 20 µM [falling, partial curve, poor fit] |

Gathered by group, those above containing sulfur.

| SMILES | AC50 |
| --- | --- |
| CCN1CCN(C(=O)c2cc3c(-c4ccc(Cl)cc4)nn(C)c3s2)CC1 | 10 µM [rising, partial curve] |
| COc1ccccc1N1CCN(CC(O)COc2ccc(S(=O)(=O)N3CCOCC3)cc2)CC1 (stereo not drawn) | 5.01 µM [falling, partial curve] |
| CCCCOCCCNS(=O)(=O)Cc1ccccc1 | 0.00794 µM [falling, full curve] |
| O=C(CC1Sc2ccccc2NC1=O)OCC(=O)N1CCc2ccccc21 (stereo not drawn) | 3.16 µM [falling, partial curve] |

Next part:

| SMILES | AC50 |
| --- | --- |
| COc1ccc2[nH]cc(CCNc3nc(-c4cccnc4)nc4ccccc34)c2c1 | 6.31 µM [rising, partial curve] |
| CC(C)n1cnc2cc(NCc3nc4ccccc4n3C)ccc21 | 25.1 µM [rising, single point] |
| O=C(C1CCCN1S(=O)(=O)c1cccc2cccnc12)N1CCn2c1nc1ccccc12 (stereo not drawn) | 25.1 µM [rising, single point] |
| O=C1CCCc2nn(-c3ccccc3)c(-c3ccncc3)c21 | 0.2 µM [rising, full curve] |
| CCCS(=O)(=O)O | 1 µM [falling, single point] |
| CCOC(=O)/C=C1\NC(C)(C)Cc2cc(OC)c(O)cc21 | 6.31 µM [rising, partial curve] |
| COCCn1c(=O)c(-c2cc(F)cc(F)c2)nc2cnc(N3CCOCC3)nc21 | 12.6 µM [rising, partial curve] |
| N#CC1=C2SCN(c3ccccc3)CN2C(=O)CC1c1c(Cl)cccc1Cl (stereo not drawn) | 25.1 µM [falling, single point] |
| COc1ccc(N2CSC3=C(C#N)C(c4cc(OC)c(OC)cc4OC)CC(=O)N3C2)c(OC)c1 (stereo not drawn) | 6.31 µM [rising, partial curve] |
| Cn1cc(-c2nc3cnc(Oc4ccccc4)nc3n(C)c2=O)c2ccccc21 | 6.31 µM [rising, partial curve] |
| O=c1cc(-c2ccccc2)oc2c1ccc1ccccc12 | 5.01 µM [rising, partial curve, poor fit] |
| Cc1ccc(-n2c(C)nc3c(cnn3-c3ccc(F)cc3)c2=O)cc1C | 0.631 µM [rising, full curve] |
| CCCCCCCCCCCCCC(=O)O[C@H](CC(=O)O)C[N+](C)(C)C | 25.1 µM [falling, partial curve] |
| O=c1c2[nH]c3ccccc3c2ncn1CCCn1ccnc1 | 3.98 µM [falling, full curve, poor fit] |
| O=C(COc1c(F)c(F)c(C(F)(F)F)c(F)c1F)Nc1ccc(N2CCOCC2)c(Cl)c1 | 0.251 µM [falling, partial curve] |
| Oc1ccc(-c2csc(NCc3ccco3)n2)cc1 | 12.6 µM [falling, single point] |
| CC(C)Nc1nc(C#N)nc(NC(C)C)n1 | 10 µM [rising, partial curve] |
| Clc1ccc(-c2nc(-c3ccccn3)no2)cc1Cl | 0.316 µM [rising, full curve] |
| CC(C)(C)C1CCc2nc(NC(=O)Cc3cn4ccsc4n3)sc2C1 (stereo not drawn) | 12.6 µM [rising, single point] |
| CC1CCCCC1N1CCN(C(=O)c2cccc(F)c2)CC1 (stereo not drawn) | 5.01 µM [falling, single point] |
| COc1ccccc1-c1nnc(SCc2nc3ccccc3[nH]2)n1C | 10 µM [rising, single point] |
| c1ccc(-c2cc(-c3nn4c(-c5ccco5)nnc4s3)c3ccccc3n2)cc1 | 7.94 µM [rising, partial curve] |
| COC(=O)[C@@]1(Cc2ccc(F)cc2)[C@@H]2[C@@H](CC(=O)[C@H]2CC(=O)C(=O)N2CCCC2)CN1C(=O)c1ccccc1 | 2 µM [rising, full curve] |

| SMILES | AC50 |
| --- | --- |
| CCn1c(=N)n(CC(O)COc2cccc(C)c2)c2ccccc21 (stereo not drawn) | 20 µM [rising, partial curve, poor fit] |
| Cc1c2ccccc2c(C)c2c1ccc1ccccc12 | 25.1 µM [rising, partial curve] |
| COCCCN1C(=O)c2[nH]nc(-c3ccccc3O)c2C1c1cccc(Cl)c1 (stereo not drawn) | 7.94 µM [rising, partial curve, poor fit] |
| Cc1ccc(S(=O)(=O)c2cc3c(=O)n4ccccc4nc3n(CC3CCCO3)c2=N)cc1 (stereo not drawn) | 10 µM [rising, partial curve] |
| O=C1CSC(c2ccccn2)N1c1ccccc1 (stereo not drawn) | 7.94 µM [falling, partial curve, poor fit] |
| CCn1c(SCCC#N)nnc1-c1ccncc1 | 12.6 µM [falling, single point] |
| COc1cccc(C(=O)Nc2c3c(nn2-c2cccc(C)c2C)CS(=O)C3)c1OC (stereo not drawn) | 15.8 µM [rising, partial curve] |
| COC(=O)[C@@]1(Cc2ccc(OC)cc2)[C@H]2c3cc(C(=O)N4CCCC4)n(CCCNc4ncc(C(F)(F)F)cc4Cl)c3C[C@H]2CN1C(=O)c1ccccc1 | 0.126 µM [rising, full curve] |
| CCCc1cc(=O)[nH]c(SCC(=O)CSc2nc(CCC)cc(=O)[nH]2)n1 | 3.98 µM [falling, single point] |
| Cc1cc(C)n(/N=C/c2c[nH]c3ccccc23)c(=O)c1 | 0.398 µM [rising, partial curve] |
| COc1ccc(C(=O)/C(C)=N/O)cc1OC | 12.6 µM [rising, partial curve] |
| Cn1cnnc1SCc1ccc(C#N)cc1Cl | 1 µM [rising, single point] |
| Cc1cccc(Cn2c(SCCO)nc3c2c(=O)n(C)c(=O)n3C)c1 | 10 µM [rising, partial curve] |
| Cn1c(=O)c2c(nc(CN3CCCCC3)n2Cc2c(F)cccc2Cl)n(C)c1=O | 10 µM [rising, partial curve] |
| CCOC(=O)c1c(NC(=O)Cc2cccs2)sc(C)c1C | 5.01 µM [rising, full curve] |
| CCCSc1nc(C)c(-c2csc(C(C#N)=C3CCCC3)n2)cc1C#N | 25.1 µM [rising, single point] |
| COc1cccc(C(=O)CSc2nnnn2C)c1 | 5.01 µM [falling, partial curve] |
| Cc1cccn2c(=O)c3cc(C#N)c(=O)n(CCCN4CCOCC4)c3nc12 | 10 µM [rising, partial curve] |
| Cc1ccc2nc3c(cc(C(N)=S)c(=N)n3CCCOC(C)C)c(=O)n2c1 | 12.6 µM [rising, partial curve] |
| COCCN1Cc2cccc(C(=O)Nc3cc(OC)ccc3OC)c2C1=O | 12.6 µM [rising, single point] |
| O=c1cc(Cn2ccnc2)c2cc3c(cc2o1)CCC3 | 20 µM [rising, single point] |
| COc1ccc2cc3cc(C(=O)NCC4COc5ccccc5O4)oc3nc2c1 (stereo not drawn) | 12.6 µM [rising, partial curve] |
